At least one read-out could not be matched to a standard name with certainty.
What follows are molecules tested on miR-21 (assay: High throughput primary miR-21 FLuc reporter assay (concentration-response)). Conditions: HeLa Luc-miR-21 reporter, 48-hour incubation, four parameter logistic fit.
Type: cell-based, human
Description: Primary miR-21 Assay. The primary miR-21 FLuc reporter assay is carried out with HeLa cells expressing the Luc-miR-21 reporter using a 48-hour incubation time. Active compounds that increase the luciferase response are identified based upon inhibition of miR-21.
SAR. The concentration-response data for the entire high throughput screen is plotted and modeled by a four parameter logistic fit and SAR analysis is performed according to conventional approaches (Iglese, et al. (2006) Proc. Natl. Acad. Sci. USA […]:11473-8). In brief, Class 1.1 and 1.2 are full curves containing upper and lower asymptotes with efficacy ≧80% and <80%, respectively. Class 2.1 and 2.2 are incomplete curves having only one asymptote with efficacy ≧80% and <80%, respectively. Class 3 curves show activity at only the highest concentration or are poorly fit. […] For SAR analysis, compounds associated with Class 1 and 2.1 curves are clustered using LEADSCOPE® fingerprints. […] Compounds sharing a common scaffold form a series. Candidate series and singletons are chosen for follow up studies. For each lead or series, an appropriate library design method (e.g., point substitution library or matrix library) is selected. Typically, precursors are synthesized and a library of 15-25 compounds is produced for analysis in the above-described assays.

Row | SMILES | Curve Class
1 | COc1ccc(NC(=O)c2ncn(-c3ccccc3)n2)cc1Cl [Compound 101] | −2.2
2 | Nc1nc(Nc2ccccc2)nc(C(F)(F)F)n1 [Compound 67] | −2.2
3 | CC(C)(C)c1ccc(NC(=O)CSc2nnc(-c3[nH]nc4ccccc34)o2)cc1 [Compound 138] | −2.2
4 | CCN(CC)C(=O)CS/C(=N/C#N)Nc1ccccc1F [Compound 155] | −2.2
5 | COc1ccc(OCC(=O)Nc2ccc(-c3nc4cc(C)c(C)cc4o3)cc2)cc1 [Compound 165] | −1.2
6 | COc1ccc(NC(=O)c2nnn(CC(=O)Nc3cccc(C)c3C)c2N)c(OC)c1 [Compound 102] | −2.2
7 | C/C(Cn1cnc([N+](=O)[O-])n1)=N\NC(=O)c1ccccc1 [Compound 236] | −2.2
8 | Cc1ccccc1OCCSc1nnc(C)n1-c1ccccc1 [Compound 50] | −2.2
9 | CN(C)c1ccc(CNc2nc(-c3ccco3)nn2S(C)(=O)=O)cc1 [Compound 33] | −2.2
10 | Cc1cc(C)c(C#N)c(SCC(=O)Nc2nonc2N)n1 [Compound 156] | −2.2
11 | Cc1cccc(-c2nsc(SCC(=O)Nc3ccc4c(c3)OCO4)n2)c1 [Compound 148] | −2.2
12 | CCc1nonc1NC(=O)c1oc2ccccc2c1C [Compound 79] | −2.2
13 | Nc1c(-c2nc(-c3cccs3)no2)nnn1-c1cccc(F)c1 [Compound 10] | −1.2
14 | CC(=O)N1N=C(c2ccc(C)cc2)OC1c1cccnc1 (stereo not shown) [Compound 228] | −2.2
15 | COCc1cc(C)nc(SCC(=O)Nc2ccc3c(c2)OCCO3)c1C#N [Compound 145] | −2.2
16 | Cc1cc(C)c(C#N)c(SCC(=O)Nc2ccc3c(c2)OCO3)n1 [Compound 128] | −2.2
17 | O=C(CSc1nnc(-c2ccc(Cl)cc2)o1)Nc1ccc(F)cc1 [Compound 122] | −1.2
18 | COc1cccc(-n2nnc(-c3nc(-c4cccs4)no3)c2N)c1 [Compound 13] | −1.2
19 | CCCNc1nc(C)nc2c1cnn2CCc1ccccc1 [Compound 248] | −2.2
20 | CCc1nonc1NC(=O)c1oc2cc(C)c(C)cc2c1C [Compound 74] | −2.2
21 | CSc1nsc(SCC(=O)Nc2ccccc2F)n1 [Compound 158] | −2.2
22 | CC(C)C(=O)Nc1nc2c(s1)CC(C(C)(C)C)CC2 (stereo not shown) [Compound 94] | −1.2
23 | CC(=O)Nc1nc2c(C)cc(NC(=O)C3CCCCC3)cc2s1 [Compound 97] | −2.2
24 | CC(C)N1CCC(=NNC(=O)c2cccs2)CC1 [Compound 206] | −2.2
25 | COCC(=O)Nc1ccc(C(=O)Nc2ccccc2Cl)cc1 [Compound 178] | −2.2
26 | CCC(=O)Nc1ccc(NC(=O)C23CC4CC(CC(C4)C2)C3)cn1 [Compound 98] | −2.2
27 | CCCCC12CN3CCN(CC(C3)/C1=N/NC(=O)c1ccccc1N)C2 [Compound 214] | −2.2

Row | SMILES | Curve Class
28 | C/C(CCc1ccc2c(c1)OCO2)=N\NC(=O)c1ccccc1 [Compound 225] | −2.2
29 | COCC(=O)Nc1nnc(C2CCCCC2)s1 [Compound 176] | −2.2
30 | COc1nc(NCCO)nc(Nc2ccccc2F)n1 [Compound 59] | −2.2
31 | O=C(COc1ccccc1[N+](=O)[O-])N/N=C/c1ccc(O)cc1 [Compound 172] | −2.2
32 | CCc1ccc2oc(C(=O)Nc3nonc3CC)c(C)c2c1 [Compound 72] | −1.2
33 | O=C(CSc1nnc(-c2ccc(Br)cc2)o1)Nc1cccc2ccccc12 [Compound 164] | −2.2
34 | N#CC1=C(SCC(=O)Nc2ccccc2)NC(=O)CC1c1ccc(O)cc1 (stereo not shown) [Compound 136] | −2.2
35 | O=C(Nc1ccc2nn(-c3ccccc3)nc2c1)c1ccc(-c2cccc(Cl)c2)o1 [Compound 109] | −2.2
36 | CC(=O)Nc1ccccc1NC(=O)C/C(C)=N/NC(=O)c1ccccn1 [Compound 189] | −1.2
37 | C#Cc1cccc(NC(=O)CSc2nnc(-c3ccc(C(F)(F)F)cn3)o2)c1 [Compound 130] | −2.2
38 | Nc1c(C(=O)Nc2ccccc2Br)sc2nc(-c3cccs3)ccc12 [Compound 82] | −2.2
39 | COc1cc(NC(=O)C/C(C)=N/NC(=O)c2ccccn2)c(OC)cc1Cl [Compound 194] | −2.2
40 | CCc1nonc1NC(=O)c1oc2ccc(C)cc2c1C [Compound 73] | −2.2
41 | CCCCCCC1/C(=N\NC(=O)c2ccccc2)CCC1C(=O)OC (stereo not shown) [Compound 230] | −2.2
42 | C/C(CC(=O)Nc1cc(C)cc(C)c1)=N\NC(=O)c1ccccn1 [Compound 195] | −1.2
43 | C/C(CC(=O)NC(C)(C)C)=N\NC(=O)c1ccco1 [Compound 205] | −2.2
44 | Cc1ccc(C)c(N/C(S)=N/NC(=O)c2csc(C)c2C)c1 [Compound 207] | −2.2
45 | C/C(=N\NC(=O)c1ccncc1)c1ccc(NC(=O)c2ccc(Cl)cc2)cc1 [Compound 185] | −1.2
46 | Nc1c(C(=O)Nc2cc(F)ccc2F)sc2nc(-c3cccc(O)c3)ccc12 [Compound 84] | −2.2
47 | CC1=NN(C(=O)c2ccc(C)o2)C(O)(c2ccccc2)C1 (stereo not shown) [Compound 231] | −2.2
48 | COCc1cc(C)nc2sc(C(=O)Nc3ccccc3O)c(N)c12 [Compound 86] | −2.2
49 | COc1cc2cc(C#N)c(SCC(=O)N3CCOCC3)nc2cc1OC [Compound 144] | −2.2
50 | COc1ccc(-c2csc(NC(=O)COC(=O)c3ccc(Br)o3)n2)cc1 [Compound 177] | −2.2
51 | Cc1cccc(-n2nnc(-c3nc(-c4ccccc4)no3)c2N)c1C [Compound 20] | −1.2
52 | Cc1cc(CC(C)C)n(-c2nc3ccccc3c(=O)n2OCC(N)=O)n1 [Compound 180] | −2.2
53 | O=C(c1ccc(Cl)cc1)n1nc(-c2ccccc2)nc1NCc1ccco1 [Compound 36] | −2.2
54 | c1ccc(CSc2nnc3ccc(-c4cccs4)nn23)nc1 [Compound 44] | −2.2

Same assay, conditions: Table 12 singletons; concentration-response curve class

Row | SMILES | Curve Class
55 | CC(=O)N1N=C(c2ccc(C)cc2)OC1c1cccnc1 (stereo not shown) [Compound 322] | −2.2
56 | COc1ccc(-c2nc3c(Br)c(N)c(Br)cc3o2)cc1 [Compound 256] | −1.2
57 | Cc1ccc(/C=N/NC(=O)NC2CCCCC2)o1 [Compound 342] | −2.2
58 | O=c1c(NCc2cccs2)nccn1-c1ccc(F)cc1 [Compound 328] | −2.2
59 | Cc1ccc2nc(C)c(/C=C/C(=O)c3ccco3)cc2c1 [Compound 297] | −2.1
60 | O=S(=O)(c1ccc(F)cc1)n1ccc(-c2cnc(-c3ccccc3)s2)n1 [Compound 260] | −1.2
61 | Cc1ccc2oc(=O)c(/C=C(\O)c3cccs3)nc2c1 [Compound 346] | −2.4
62 | CN1CCN(/N=C/c2nc(-c3ccc(Cl)cc3)n3ccccc23)CC1 [Compound 325] | −2.2
63 | CC1Oc2ccccc2N(CC(=O)NCc2cccs2)C1=O (stereo not shown) [Compound 334] | −2.2
64 | CNc1cc([N+](=O)[O-])ccc1/N=C/C=C(\O)c1cccs1 [Compound 290] | −2.2
65 | Cn1nc(NC(=O)C(F)(F)F)c2ncc(-c3ccc(Cl)cc3)nc21 [Compound 292] | −2.1
66 | CCc1ccc(NC(=O)NCCCN2CCCC2=O)cc1 [Compound 291] | −2.2
67 | Cc1nc2ccc(/N=C(\S)N3CCC(C)CC3)cc2nc1C [Compound 296] | −2.2
68 | O=C(CN1c2ccc(Br)cc2-c2ccccc2S1(=O)=O)N1CCCCC1 [Compound 280] | −2.2
69 | COc1ccc(C(CC(=O)Nc2ccc(C(C)=O)cc2)N2Cc3ccccc3C2=O)cc1 (stereo not shown) [Compound 289] | −2.2
70 | CCCCC12CN3CCN(CC(C3)/C1=N/NC(=O)c1ccccc1N)C2 [Compound 285] | −2.2
71 | Cn1nc(NC(=O)C(F)(F)F)c2ncc(-c3ccc(Cl)cc3)nc21 [Compound 283] | −2.1
72 | O=C(Nc1ccccc1)c1cc2n(n1)C(C(F)(F)F)CC(C1CC1)N2 (stereo not shown) [Compound 272] | −2.2
73 | O=S(=O)(c1cccc2nsnc12)N1CCc2ccccc21 [Compound 269] | −2.2
74 | CC1(C)Cc2nc3oc4c(S)ncnc4c3cc2CO1 [Compound 295] | −2.2
75 | COc1ccc(/C=C/C(=O)NC2CCCCCC2)cc1S(=O)(=O)N1CCOCC1 [Compound 287] | −2.2
76 | CC(=O)N(C)c1ccc(N/C(S)=N/c2cccc3ccccc23)cc1 [Compound 337] | −2.2
77 | Cc1ccc(-c2nc3ccccc3o2)cc1NC(=S)NC(=O)c1cc2ccccc2o1 [Compound 258] | −2.2
78 | CCNc1ccc(/N=N/c2c(C)n(C)n(-c3ccccc3)c2=O)cc1 [Compound 344] | −2.2
79 | NC1=NC(=O)/C(=C/c2cn(Cc3ccccc3)c3ccccc23)S1 [Compound 284] | −2.1
80 | COC(=O)C1C(=O)C=C(Nc2ccc(F)cc2F)CC1c1ccccc1 (stereo not shown) [Compound 340] | −2.2
81 | COC(=O)C1C(=O)C=C(Nc2ccc(F)cc2F)CC1c1ccccc1 (stereo not shown) [Compound 343] | −3
82 | O=c1c(=Nc2ccccc2O)c(=O)c2ccccc12 [Compound 294] | −2.2

Source: US20120010177A1, “MicroRNA Modulators and Method for Identifying And Using The Same” (The Wistar Institute / North Carolina State University, priority 2008, published 2012)
